From publication PMC5007297
No constants are given. Whether binding was seen depends on the method and setting. For some assays here: Binding can be weak; no strength is given. For some assays here: In cells and extracts the contact can be indirect. Each block holds one substance with its values, some of them ahead of it.

What was measured:
Asl (Drosophila) = target: T1, Asl (Drosophila) (UniProt Q9VNE4); test: two-hybrid; array-based mating screen (modified Matchmaker Gold; Y2HGold x Y187), every construct as bait and as prey; interactions reported at the highest stringency (QDOXA plates), 30 °C, scored 0-3
T1 sequence: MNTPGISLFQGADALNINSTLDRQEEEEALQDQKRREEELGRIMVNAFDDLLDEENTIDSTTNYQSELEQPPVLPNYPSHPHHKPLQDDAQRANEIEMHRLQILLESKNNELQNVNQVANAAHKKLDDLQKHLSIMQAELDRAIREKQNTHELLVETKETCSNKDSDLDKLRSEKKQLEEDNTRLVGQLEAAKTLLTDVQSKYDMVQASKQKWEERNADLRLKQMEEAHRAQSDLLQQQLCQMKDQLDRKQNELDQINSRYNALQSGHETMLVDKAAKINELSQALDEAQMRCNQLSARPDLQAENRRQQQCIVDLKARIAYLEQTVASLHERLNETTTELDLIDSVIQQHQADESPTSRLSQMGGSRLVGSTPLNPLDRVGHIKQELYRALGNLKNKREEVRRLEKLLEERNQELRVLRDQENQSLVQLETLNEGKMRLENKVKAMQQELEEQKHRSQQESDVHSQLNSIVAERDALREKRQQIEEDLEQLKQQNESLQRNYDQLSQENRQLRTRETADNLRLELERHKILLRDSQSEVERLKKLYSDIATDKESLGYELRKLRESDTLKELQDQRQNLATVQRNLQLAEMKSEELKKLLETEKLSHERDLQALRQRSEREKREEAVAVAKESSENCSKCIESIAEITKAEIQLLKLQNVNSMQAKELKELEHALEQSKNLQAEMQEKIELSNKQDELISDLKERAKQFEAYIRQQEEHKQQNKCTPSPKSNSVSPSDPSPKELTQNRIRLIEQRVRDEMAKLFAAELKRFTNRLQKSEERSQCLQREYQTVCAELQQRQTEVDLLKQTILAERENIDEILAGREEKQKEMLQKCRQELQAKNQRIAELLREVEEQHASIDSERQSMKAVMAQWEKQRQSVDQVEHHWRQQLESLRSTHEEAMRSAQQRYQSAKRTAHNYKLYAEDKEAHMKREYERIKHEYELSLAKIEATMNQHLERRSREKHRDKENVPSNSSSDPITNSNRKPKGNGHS

[1] = target: T2, Asl^F3 (aa 626–993) (Drosophila) (UniProt Q9VNE4); test: as above
T2 sequence: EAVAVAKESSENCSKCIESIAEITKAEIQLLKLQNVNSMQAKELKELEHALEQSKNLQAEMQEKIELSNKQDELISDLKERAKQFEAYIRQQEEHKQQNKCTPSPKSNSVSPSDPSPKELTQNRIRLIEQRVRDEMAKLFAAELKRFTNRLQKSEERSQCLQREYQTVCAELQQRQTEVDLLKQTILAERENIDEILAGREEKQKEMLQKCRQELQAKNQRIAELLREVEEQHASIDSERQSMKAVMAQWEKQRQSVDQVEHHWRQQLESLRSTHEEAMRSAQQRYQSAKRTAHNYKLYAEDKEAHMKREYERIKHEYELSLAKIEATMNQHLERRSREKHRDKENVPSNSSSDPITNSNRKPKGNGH

[2] = target: T3, Plk4^F2 (aa 382–602) (S2 cell co-IP construct) (Drosophila) (UniProt O97143); test: co-IP; S2 cells transfected with the tagged constructs; anti-GFP (ab290) on Protein A Dynabeads, RIPA or CLB lysis buffer, 30 min at 4 °C; blots with anti-GFP and anti-FLAG
T3 sequence: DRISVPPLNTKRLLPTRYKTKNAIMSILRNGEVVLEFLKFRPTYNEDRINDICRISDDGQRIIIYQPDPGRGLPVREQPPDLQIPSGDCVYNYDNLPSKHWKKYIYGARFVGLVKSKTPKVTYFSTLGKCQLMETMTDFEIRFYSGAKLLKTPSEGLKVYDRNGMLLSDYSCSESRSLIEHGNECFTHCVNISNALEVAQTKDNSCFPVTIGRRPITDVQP

Plk4 (Drosophila) = target: T4, Plk4 (Drosophila) (UniProt O97143); test: two-hybrid; array-based mating screen (modified Matchmaker Gold; Y2HGold x Y187), every construct as bait and as prey; interactions reported at the highest stringency (QDOXA plates), 30 °C, scored 0-3
T4 sequence: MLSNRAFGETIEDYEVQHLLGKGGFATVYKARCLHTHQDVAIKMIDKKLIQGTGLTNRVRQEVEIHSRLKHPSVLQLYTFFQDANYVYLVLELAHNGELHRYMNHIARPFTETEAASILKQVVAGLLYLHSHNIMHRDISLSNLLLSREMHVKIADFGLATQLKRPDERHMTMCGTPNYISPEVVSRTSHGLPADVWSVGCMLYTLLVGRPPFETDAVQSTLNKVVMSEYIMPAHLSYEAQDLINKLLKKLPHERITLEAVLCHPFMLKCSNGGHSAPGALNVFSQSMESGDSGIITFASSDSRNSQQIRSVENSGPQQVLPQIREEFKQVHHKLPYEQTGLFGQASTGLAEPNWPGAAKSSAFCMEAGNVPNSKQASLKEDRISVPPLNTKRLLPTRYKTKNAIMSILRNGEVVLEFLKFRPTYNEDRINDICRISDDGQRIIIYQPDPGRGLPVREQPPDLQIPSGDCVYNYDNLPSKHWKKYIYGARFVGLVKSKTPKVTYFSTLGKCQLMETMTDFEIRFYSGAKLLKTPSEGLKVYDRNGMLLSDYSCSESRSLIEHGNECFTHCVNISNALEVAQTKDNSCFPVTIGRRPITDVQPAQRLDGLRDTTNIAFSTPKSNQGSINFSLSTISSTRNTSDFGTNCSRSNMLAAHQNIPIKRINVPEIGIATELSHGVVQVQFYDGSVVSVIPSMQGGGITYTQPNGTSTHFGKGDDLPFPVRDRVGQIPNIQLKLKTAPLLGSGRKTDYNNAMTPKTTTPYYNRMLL

Sas-6 (Drosophila) = target: T5, Sas-6 (Drosophila) (UniProt Q9VAC8); test: as above
T5 sequence: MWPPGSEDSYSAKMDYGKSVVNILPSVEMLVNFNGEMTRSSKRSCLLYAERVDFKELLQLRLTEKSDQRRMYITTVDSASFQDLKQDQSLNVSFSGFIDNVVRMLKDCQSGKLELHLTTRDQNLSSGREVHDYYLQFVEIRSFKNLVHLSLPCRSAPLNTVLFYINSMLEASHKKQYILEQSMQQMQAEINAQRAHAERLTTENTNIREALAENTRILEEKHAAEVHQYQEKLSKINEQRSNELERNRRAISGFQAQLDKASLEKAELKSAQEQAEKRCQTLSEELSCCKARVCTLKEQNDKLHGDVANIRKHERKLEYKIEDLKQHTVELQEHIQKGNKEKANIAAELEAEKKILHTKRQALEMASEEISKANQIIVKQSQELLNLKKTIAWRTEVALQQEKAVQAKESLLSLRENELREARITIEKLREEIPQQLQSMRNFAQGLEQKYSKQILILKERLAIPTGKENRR

Substance: Cep135^FL-9A (Drosophila)
- binding [1]: no binding

Substance: Ana1 (Drosophila)
- binding (Plk4 (Drosophila)): binds
- binding (Sas-6 (Drosophila)): binds

Substance: Cep135 (Drosophila)
- binding (Plk4 (Drosophila)): binds

Further lines, results first:

- binding (Asl (Drosophila)): binds
Substance: Cnn (Drosophila)

- binding [2]: binds
Substance: Cep135 (S2 cell co-IP with Plk4) (Drosophila)

- binding (Plk4 (Drosophila)): binds
Substance: CP110 (Drosophila)

- binding [1]: no binding
Substance: Cep135^FL-WT (Drosophila)
